In US10563263B2, “Genetic polymorphisms associated with statin response and cardiovascular diseases, methods of detection and uses thereof” (CELERA CORPORATION, priority 2010, dated 2020):
Further values from the same series stand in other lists.

Tested on: revascularization, unstable angina requiring hospitalization, MI, all causes of death, or stroke
Test: PROVE IT-TIMI 22: SNP by treatment interaction (high-dose atorvastatin vs standard-dose pravastatin), logistic regression (synergy index), primary composite endpoint
Type: in vivo, human

CC(C)c1c(C(=O)Nc2ccccc2)c(-c2ccccc2)c(-c2ccc(F)cc2)n1CC[C@@H](O)C[C@@H](O)CC(=O)O [Atorvastatin, atorvastatin]
OR (rs2095606, allele A, DOM, Imputed, PROVE-IT, vs pravastatin): 0.9481 | OR (rs2102374, allele A, ADD, Imputed, PROVE-IT, vs pravastatin): 1.135 | OR (rs2102374, allele A, DOM, Imputed, PROVE-IT, vs pravastatin): 1.187 | OR (rs2108426, allele C, DOM, Imputed, PROVE-IT, vs pravastatin): 0.5934 | OR (rs2108426 allele C (A1), DOM, Imputed, atorvastatin vs pravastatin): 0.5934 | OR (rs2110664, allele A, DOM, Imputed, PROVE-IT, vs pravastatin): 1.47 | OR (rs2110664 allele A (A1), DOM, Imputed, atorvastatin vs pravastatin): 1.47 | OR (rs2132242, allele A, ADD, Imputed, PROVE-IT, vs pravastatin): 0.7679 | OR (rs2132242, allele A, DOM, Imputed, PROVE-IT, vs pravastatin): 0.6978 | OR (rs2132242 allele A (A1), DOM, Imputed, atorvastatin vs pravastatin): 0.6978 | OR (rs2151644 allele T (A1), DOM, Imputed, atorvastatin vs pravastatin): 1.184 | OR (rs2158958, allele A, DOM, Imputed, PROVE-IT, vs pravastatin): 0.5934 | OR (rs2158958 allele A (A1), DOM, Imputed, atorvastatin vs pravastatin): 0.5934 | OR (rs2158961, allele G, DOM, Imputed, PROVE-IT, vs pravastatin): 0.6399 | OR (rs2158961 allele G (A1), DOM, Imputed, atorvastatin vs pravastatin): 0.6399 | OR (rs2163046, allele A, DOM, Imputed, PROVE-IT, vs pravastatin): 1.529 | OR (rs2164099 allele G (A1), ADD, Imputed, atorvastatin vs pravastatin): 1.075 | OR (rs2173254 allele G (A1), REC, Imputed, atorvastatin vs pravastatin): 1.019 | OR (rs2180286, allele G, DOM, Imputed, PROVE-IT, vs pravastatin): 0.587 | OR (rs2180684, allele A, DOM, Imputed, PROVE-IT, vs pravastatin): 1.876 | OR (rs2188079, allele C, ADD, Imputed, PROVE-IT, vs pravastatin): 1.028 | OR (rs2188079 allele C (A1), ADD, Imputed, atorvastatin vs pravastatin): 1.028 | OR (rs2190304 allele G (A1), REC, Imputed, atorvastatin vs pravastatin): 1.465 | OR (rs2190597 allele T (A1), DOM, Imputed, atorvastatin vs pravastatin): 0.6496 | OR (rs2190598, allele T, DOM, Imputed, PROVE-IT, vs pravastatin): 0.5934 | OR (rs2190598 allele T (A1), DOM, Imputed, atorvastatin vs pravastatin): 0.5934 | OR (rs2190600, allele A, DOM, Imputed, PROVE-IT, vs pravastatin): 0.577 | OR (rs2190600 allele A (A1), DOM, Imputed, atorvastatin vs pravastatin): 0.577 | OR (rs2218084 allele T (A1), REC, Imputed, atorvastatin vs pravastatin): 2.942 | OR (rs2224184, allele T, DOM, Genotyped, PROVE-IT, vs pravastatin): 0.587 | OR (rs2243860 allele A (A1), REC, Imputed, atorvastatin vs pravastatin): 1.553 | OR (rs2246564 allele T (A1), DOM, Imputed, atorvastatin vs pravastatin): 1.177 | OR (rs2248236, allele C, ADD, Imputed, PROVE-IT, vs pravastatin): 0.6625 | OR (rs2248236, allele C, DOM, Imputed, PROVE-IT, vs pravastatin): 0.5404 | OR (rs2248236 allele C (A1), DOM, Imputed, atorvastatin vs pravastatin): 0.5404 | OR (rs2250340 allele T (A1), DOM, Imputed, atorvastatin vs pravastatin): 1.184 | OR (rs2257192 allele G (A1), DOM, Imputed, atorvastatin vs pravastatin): 1.177 | OR (rs2265733, allele C, ADD, Imputed, PROVE-IT, vs pravastatin): 1.135 | OR (rs2265733, allele C, DOM, Imputed, PROVE-IT, vs pravastatin): 1.187 | OR (rs2270584, allele A, ADD, Imputed, PROVE-IT, vs pravastatin): 0.7517 | OR (rs2270584, allele A, DOM, Imputed, PROVE-IT, vs pravastatin): 0.6747 | OR (rs2270584 allele A (A1), DOM, Imputed, atorvastatin vs pravastatin): 0.6747 | OR (rs2270586, allele A, ADD, Imputed, PROVE-IT, vs pravastatin): 0.7586 | OR (rs2270586, allele A, DOM, Imputed, PROVE-IT, vs pravastatin): 0.6883 | OR (rs2270586 allele A (A1), DOM, Imputed, atorvastatin vs pravastatin): 0.6883 | OR (rs2270589 allele A (A1), ADD, Imputed, atorvastatin vs pravastatin): 0.6468 | OR (rs2270589 allele A (A1), DOM, Imputed, atorvastatin vs pravastatin): 0.5799 | OR (rs2296889 allele C (A1), DOM, Imputed, atorvastatin vs pravastatin): 0.9005 | OR (rs2301346 allele C (A1), ADD, Imputed, atorvastatin vs pravastatin): 1.001 | OR (rs2301346 allele C (A1), DOM, Imputed, atorvastatin vs pravastatin): 1.026 | OR (rs2317057, allele T, ADD, Imputed, PROVE-IT, vs pravastatin): 0.5936 | OR (rs2322101, allele A, REC, Imputed, PROVE-IT, vs pravastatin): 2.67 | OR (rs2327929, allele G, REC, Imputed, PROVE-IT, vs pravastatin): 1.411 | OR (rs2327929 allele G (A1), REC, Imputed, atorvastatin vs pravastatin): 1.411 | OR (rs2332844, allele A, ADD, Imputed, PROVE-IT, vs pravastatin): 1.301 | OR (rs2332844, allele A, REC, Imputed, PROVE-IT, vs pravastatin): 1.427 | OR (rs2349170, allele G, DOM, Imputed, PROVE-IT, vs pravastatin): 1.414 | OR (rs2356722, allele G, DOM, Imputed, PROVE-IT, vs pravastatin): 1.255 | OR (rs2357486 allele C (A1), REC, Imputed, atorvastatin vs pravastatin): 0.8855 | OR (rs2364956, allele T, ADD, Imputed, PROVE-IT, vs pravastatin): 1.168 | OR (rs2373793, allele G, DOM, Imputed, PROVE-IT, vs pravastatin): 1.599 | OR (rs2373793 allele G (A1), DOM, Imputed, atorvastatin vs pravastatin): 1.599 | OR (rs2377622 allele T (A1), REC, Imputed, atorvastatin vs pravastatin): 0.2954 | OR (rs2383903, allele G, DOM, Imputed, PROVE-IT, vs pravastatin): 0.7568 | OR (rs2383903 allele G (A1), DOM, Imputed, atorvastatin vs pravastatin): 0.7568 | OR (rs2387945, allele G, DOM, Imputed, PROVE-IT, vs pravastatin): 1.747 | OR (rs2389863, allele A, DOM, Imputed, PROVE-IT, vs pravastatin): 0.5655 | OR (rs2389866 allele C (A1), DOM, Imputed, atorvastatin vs pravastatin): 0.5404 | OR (rs2389869 allele C (A1), DOM, Imputed, atorvastatin vs pravastatin): 0.5404 | OR (rs2418541 allele A (A1), DOM, Imputed, atorvastatin vs pravastatin): 0.593 | OR (rs2418542 allele A (A1), DOM, Imputed, atorvastatin vs pravastatin): 0.593 | OR (rs2418548 allele C (A1), DOM, Imputed, atorvastatin vs pravastatin): 0.6036 | OR (rs2476976 allele C (A1), DOM, Imputed, atorvastatin vs pravastatin): 1.391 | OR (rs2483639 allele A (A1), DOM, Imputed, atorvastatin vs pravastatin): 1.177 | OR (rs2483640 allele A (A1), DOM, Imputed, atorvastatin vs pravastatin): 1.177 | OR (rs2544780 allele T (A1), REC, Imputed, atorvastatin vs pravastatin): 3.054 | OR (rs2586458 allele T (A1), DOM, Imputed, atorvastatin vs pravastatin): 1.439 | OR (rs2593272 allele G (A1), ADD, Imputed, atorvastatin vs pravastatin): 0.9033 | OR (rs2593273 allele T (A1), ADD, Imputed, atorvastatin vs pravastatin): 0.9769 | OR (rs2622499 allele G (A1), DOM, Imputed, atorvastatin vs pravastatin): 0.5404 | OR (rs2656822 allele T (A1), ADD, Imputed, atorvastatin vs pravastatin): 0.9033 | OR (rs2656823 allele G (A1), ADD, Imputed, atorvastatin vs pravastatin): 0.9033 | OR (rs2656825 allele T (A1), ADD, Imputed, atorvastatin vs pravastatin): 0.986 | OR (rs2764766 allele C (A1), REC, Imputed, atorvastatin vs pravastatin): 3.069 | OR (rs2793101 allele T (A1), ADD, Imputed, atorvastatin vs pravastatin): 1.081 | OR (rs2793101 allele T (A1), DOM, Imputed, atorvastatin vs pravastatin): 1.046 | OR (rs2795871 allele A (A1), ADD, Imputed, atorvastatin vs pravastatin): 0.5722 | OR (rs2795886 allele A (A1), ADD, Imputed, atorvastatin vs pravastatin): 0.5272 | OR (rs2795886 allele A (A1), DOM, Imputed, atorvastatin vs pravastatin): 0.5272 | OR (rs2870464 allele G (A1), DOM, Imputed, atorvastatin vs pravastatin): 1.969 | OR (rs2875528 allele T (A1), DOM, Imputed, atorvastatin vs pravastatin): 0.8843 | OR (rs2876227 allele C, ADD, Imputed, atorvastatin vs pravastatin): 1.389 | OR (rs2921983 allele C, ADD, Imputed, atorvastatin vs pravastatin): 0.8945 | OR (rs2987537 allele C, DOM, Imputed, atorvastatin vs pravastatin): 1.58 | OR (rs2996416 allele C, ADD, Imputed, atorvastatin vs pravastatin): 1.725 | OR (rs2996416 allele C, DOM, Imputed, atorvastatin vs pravastatin): 1.754 | OR (rs3015527 allele C, ADD, Imputed, atorvastatin vs pravastatin): 1.884 | OR (rs3015527 allele C, DOM, Imputed, atorvastatin vs pravastatin): 1.945 | OR (rs3015530 allele C, ADD, Imputed, atorvastatin vs pravastatin): 1.725 | OR (rs3015530 allele C, DOM, Imputed, atorvastatin vs pravastatin): 1.754 | OR (rs3015531 allele T, ADD, Imputed, atorvastatin vs pravastatin): 1.725 | OR (rs3015531 allele T, DOM, Imputed, atorvastatin vs pravastatin): 1.754 | OR (rs3015535 allele C, ADD, Imputed, atorvastatin vs pravastatin): 1.725 | OR (rs3015535 allele C, DOM, Imputed, atorvastatin vs pravastatin): 1.754 | OR (rs3019407 allele A, REC, Imputed, atorvastatin vs pravastatin): 1.025 | OR (rs3756154 allele C, DOM, Imputed, atorvastatin vs pravastatin): 0.5162 | OR (rs3793044 allele C, ADD, Imputed, atorvastatin vs pravastatin): 1.091 | OR (rs3793053 allele C, ADD, Imputed, atorvastatin vs pravastatin): 0.995 | OR (rs3793053 allele C, DOM, Imputed, atorvastatin vs pravastatin): 0.9919 | OR (rs3796246 allele G, ADD, Imputed, atorvastatin vs pravastatin): 0.9554 | OR (rs3796246 allele G, DOM, Imputed, atorvastatin vs pravastatin): 0.9829 | OR (rs3805996 allele G, ADD, Imputed, atorvastatin vs pravastatin): 1.042 | OR (rs3805996 allele G, DOM, Imputed, atorvastatin vs pravastatin): 1.106 | OR (rs3806003 allele A, ADD, Imputed, atorvastatin vs pravastatin): 1.091 | OR (rs3806004 allele T, ADD, Imputed, atorvastatin vs pravastatin): 0.9899 | OR (rs3806004 allele T, DOM, Imputed, atorvastatin vs pravastatin): 0.982 | OR (rs3806010 allele T, ADD, Imputed, atorvastatin vs pravastatin): 0.9899 | OR (rs3806010 allele T, DOM, Imputed, atorvastatin vs pravastatin): 0.982 | OR (rs3806014 allele T, ADD, Imputed, atorvastatin vs pravastatin): 1.014 | OR (rs3806014 allele T, DOM, Imputed, atorvastatin vs pravastatin): 1.002 | OR (rs3806015 allele A, ADD, Imputed, atorvastatin vs pravastatin): 1.004 | OR (rs3806015 allele A, DOM, Imputed, atorvastatin vs pravastatin): 0.9945 | OR (rs3806018 allele A, ADD, Imputed, atorvastatin vs pravastatin): 0.9899 | OR (rs3806018 allele A, DOM, Imputed, atorvastatin vs pravastatin): 0.982 | OR (rs3806019 allele A, ADD, Imputed, atorvastatin vs pravastatin): 0.974 | OR (rs3806019 allele A, DOM, Imputed, atorvastatin vs pravastatin): 0.9676 | OR (rs3806024 allele T, ADD, Imputed, atorvastatin vs pravastatin): 1.029 | OR (rs3806024 allele T, DOM, Imputed, atorvastatin vs pravastatin): 1.001
